Source: PubChem BioAssay AID540276 (National Center for Advancing Translational Sciences (NCATS), 2011)
Out of some 300,000 compounds screened, about 5,400 (1.8%) were called active. The inconclusive results got no clear call from the source; some entries with a clear call stand among them for comparison. The call rests on the fitted dose curve; tested in HEK293 cells. Potencies of inconclusive entries are doubtful fits and often do not repeat.

Test: qHTS for inhibitors of binding or entry into cells for Marburg Virus
Conditions: Marburg virus pseudotyped entry inhibition, cell reporter; series mostly up to 37.8 µM
Potency means the concentration at half of the fitted maximal effect.

SMILES | Potency
CC(=O)c1cc(F)c(N2CCN(C(=O)Cc3ccccc3)CC2)cc1C | inactive
COc1ccccc1NS(=O)(=O)c1cc(NC(=O)/C=C/c2cccs2)ccc1N1CCOCC1 | inconclusive: 1.3 µM [inhibitor, full curve]
O=[N+]([O-])c1cc(-c2nc(-c3ccccc3)no2)ccc1NC1CCCC1 | inconclusive: 20 µM [inhibitor, single point]
[O-][N+]1=C2CCC/C(=N\O)C2=NC12CCCCC2 | inactive
COc1ccc(NC(=O)CSc2n[nH]c(=O)n2Cc2ccccc2)cc1Cl | inconclusive: 22.4 µM [inhibitor, single point]
CCOC(=O)c1ccc2c(c1)N(Cc1ccccc1C)C(=O)c1ccccc1S2=O (stereo not given) | inconclusive: 4.61 µM [inhibitor, partial curve, poor fit]
COc1ccccc1C(=O)NC1=NC(c2ccc(Br)cc2)CC(=O)N1 (stereo not given) | inconclusive: 2.82 µM [activator, partial curve, poor fit]
N#CCC(=O)Nc1ccc(C(=O)OCC(=O)NC(=O)Cc2ccccc2)cc1 | inactive
C/C(CC(=O)Nc1cccc(Cl)c1)=N\NC(=O)Cc1ccc(Cl)cc1 | inactive
COc1cccc(NC(=O)NCCc2ccc(Cl)cc2)c1 | inactive
Cc1ccc2nc(SCCC#N)nc(C)c2c1 | inconclusive: 4.47 µM [inhibitor, single point]
O=C(Nc1ccccc1C(=O)NCCc1ccccc1)c1cnccn1 | inconclusive: 20 µM [inhibitor, single point]
CCCN(CCC)c1nc2ccccc2nc1C(C#N)C(=O)OCCOC (stereo not given) | inconclusive: 35.5 µM [inhibitor, single point]
Cc1cnc(NC(=O)c2ccco2)s1 | inconclusive: 0.231 µM [activator, single point]
O=C1CC(N(CCc2ccccc2)C(=S)Nc2cc(Cl)ccc2Cl)C(=O)N1c1c(Cl)cccc1Cl (stereo not given) | active: 12.6 µM
CCCCn1c(O)c(/C=N/N2CCCCC2c2cccnc2)c(=O)[nH]c1=S (stereo not given) | inconclusive: 5.62 µM [inhibitor, single point]
CCCOP(=O)(c1ccc(N(C)C)cc1)C(O)c1ccc(N(C)C)cc1 (stereo not given) | inconclusive: 10 µM [inhibitor, partial curve]
Cc1ccnc(SCC(=O)c2cccs2)n1 | inconclusive: 3.16 µM [activator, partial curve, poor fit]
Cc1cccc(OCCN2C(=O)C(=O)c3cc(C)ccc32)c1 | inconclusive: 10 µM [inhibitor, partial curve, poor fit]
O=C(OCCCN=C1NS(=O)(=O)c2ccccc21)c1ccc([N+](=O)[O-])cc1 | inconclusive: 22.4 µM [activator, single point]
NS(=O)(=O)c1ccc(NCc2c(F)cccc2Cl)cc1 | inactive
Cc1nn(C)c(C)c1S(=O)(=O)N1CCC(C(=O)NC2CCCCCC2)CC1 | inactive
CCOC(=O)c1c(CN2CCOCC2)n(-c2ccccc2)c2cc(Br)c(O)cc12 | inactive
CCOC(=O)C1CCCN(C(=O)N2CCOCC2)C1 (stereo not given) | inconclusive: 29.1 µM [activator, partial curve, poor fit]

Four entries from above, with tabs:
SMILES	Potency
[O-][N+]1=C2CCC/C(=N\O)C2=NC12CCCCC2	inactive
COc1ccc(NC(=O)CSc2n[nH]c(=O)n2Cc2ccccc2)cc1Cl	inconclusive: 22.4 µM [inhibitor, single point]
CCOC(=O)c1ccc2c(c1)N(Cc1ccccc1C)C(=O)c1ccccc1S2=O (stereo not given)	inconclusive: 4.61 µM [inhibitor, partial curve, poor fit]
COc1ccccc1C(=O)NC1=NC(c2ccc(Br)cc2)CC(=O)N1 (stereo not given)	inconclusive: 2.82 µM [activator, partial curve, poor fit]

Next compounds follow.

SMILES | Potency
Cc1cc(=O)oc2cc(OCC3CC(c4ccc(Br)cc4)=NO3)ccc12 (stereo not given) | inconclusive: 25.9 µM [inhibitor, single point]
O=C(COc1ccc(-n2ccnc2)cc1)Nc1cccc(Cl)c1 | inconclusive: 14.1 µM [inhibitor, single point]
Cc1ccc(C(=O)Nc2ccc3oc(-c4ccncc4)nc3c2)c(Cl)c1 | inconclusive: 20 µM [inhibitor, partial curve, poor fit]
CCN1CSC(=S)N(Cc2ccccc2)C1 | inconclusive: 5.62 µM [activator, single point]
CCN(CC)C(=O)c1cccc(NC(=O)c2cc(-c3ccccn3)nc3ccccc23)c1 | inconclusive: 35.5 µM [inhibitor, single point]
Cc1cc(C(=O)CSc2nnc(-c3ccccc3F)o2)c(C)n1Cc1cccs1 | inactive
CCOC(=O)c1ccc(NS(=O)(=O)c2cc3c4c(c2)CCN4C(=O)CC3)cc1 | inactive
CC(C)CN(CC(C)C)S(=O)(=O)N1CCC(C(=O)NC2CCCCCCC2)CC1 | inactive
O=C(CSc1nnc(-c2cccnc2)o1)N1CCCCC1 | inconclusive: 5.62 µM [activator, single point]
CC(=O)N1C(=O)NC2=C(C(=O)CCC2)C1c1cccc([N+](=O)[O-])c1 (stereo not given) | inconclusive: 11.2 µM [inhibitor, partial curve, poor fit]
Cc1ccccc1SCC(=O)OCC(=O)NCc1ccccc1 | inconclusive: 3.16 µM [inhibitor, full curve]
Cc1nnc(NC(=O)C(=O)c2cc(C)n(-c3ccc(C)c(C)c3)c2C)s1 | inconclusive: 0.562 µM [inhibitor, full curve, poor fit]
COc1cccc(CNc2ccc(S(N)(=O)=O)cc2)c1OCc1ccccc1F | inconclusive: 0.224 µM [activator, partial curve, poor fit]
COCCn1c(=N)c(C(=O)NCc2ccco2)cc2c(=O)n3cc(C)ccc3nc21 | inconclusive: 10 µM [inhibitor, partial curve, poor fit]
Cc1ccc(-n2c(-c3ccco3)nc3c(cnn3-c3ccccc3C)c2=O)cc1 | inactive
CN1C(=O)C(C2c3ccccc3C(=O)N2Cc2ccccc2)C(=O)N(C)C1=O (stereo not given) | inactive
CCC(=O)Nc1ccc(NC(=S)Nc2ccccc2)cc1 | inconclusive: 2 µM [activator, full curve]
Cc1ccc(Cn2c(SCc3ccc(C(=O)NC4CCCC4)cc3)nc3ccncc32)cc1 | inactive
O=C(c1cc2ccccn2n1)N1CCN(c2cccc(C(F)(F)F)c2)CC1 | inactive
CCn1c(=O)cc(OCC(=O)Nc2ccc(C)c(F)c2)c2ccccc21 | inactive
N=c1c2c3c(sc2ncn1Cc1ccccc1)CCCC3 | inconclusive: 0.1 µM [inhibitor, full curve, poor fit]
O=c1oc2ccccc2cc1-c1cn2cc(Cc3ccccc3F)sc2n1 | inconclusive: 3.16 µM [inhibitor, partial curve, poor fit]
Oc1ccc(/C=N/N2CCCCC2)c(O)c1 | inactive
COc1ccc(CC(=O)NCc2nnc(SCC(=O)c3ccc(OC)cc3)n2C)cc1 | inactive

SMILES | Potency
Cc1ccc2nc(-c3cccnc3)c(NC3CCCC3)n2c1 | inconclusive: 6.31 µM [inhibitor, partial curve, poor fit]
COc1ccc(C)cc1S(=O)(=O)N(CC(=O)N1CCOCC1)c1cc(C)cc(C)c1 | inconclusive: 2 µM [inhibitor, partial curve, poor fit]
CCOC(=O)Cc1csc(NC(=O)COc2ccccc2)n1 | inactive
Cc1ccc(-c2cn(-c3ccc(Cl)cc3)c(S(=O)(=O)CC(=O)Nc3ccccc3)n2)cc1 | inconclusive: 15.8 µM [inhibitor, single point]
CC(C)(C)NC(=O)N1CCN(c2nc(-c3ccccc3)ns2)CC1 | inconclusive: 1.26 µM [activator, single point]
CCCCCSc1cc(O)c(C(CNC)C(C)C)cc1OC (stereo not given) | active: 18.4 µM
CC(C)(C)NC(=O)C(c1ccccn1)N(C(=O)c1ccc2c(c1)OCCO2)C1CCCC1 (stereo not given) | inconclusive: 7.08 µM [inhibitor, partial curve, poor fit]
CCOC(=O)C1(CCc2ccccc2)CCN(Cc2cnc(N(C)C)s2)CC1 | inconclusive: 7.94 µM [inhibitor, partial curve, poor fit]
COc1ccccc1NC(=S)c1ccccc1 | inconclusive: 6.31 µM [activator, single point]
Cc1cc(C=C2C(=O)NC(=S)NC2=O)c(C)n1C1CCCC1 | inconclusive: 35.5 µM [inhibitor, single point]
O=C(CNC(=O)c1ccc(-c2ccccc2)cc1)OCc1ccc(Br)cc1 | inactive
CCN(CC(=O)Nc1c(F)cccc1F)C(=O)CN1C(=O)C2CCCCC2C1=O (stereo not given) | inconclusive: 1.26 µM [inhibitor, single point]
Cc1cccc(C)c1Nc1c(-c2ccc(O)cc2)nc2sccn12 | inactive
CCc1ccc(NC(=O)CCCn2nc(CC)n3c(cc4occc43)c2=O)cc1 | inconclusive: 35.5 µM [inhibitor, single point]
O=c1oc2ccccc2cc1-c1cn2cc(Cc3ccc(Br)cc3)sc2n1 | inconclusive: 3.55 µM [activator, partial curve, poor fit]
CCN(CC)CCN(C)C1CCC(c2ccccc2)CC1 (stereo not given) | inconclusive: 10 µM [inhibitor, partial curve, poor fit]
Cc1ccccc1N(CC(=O)NC1CCCCC1)C(=O)CCC(=O)Nc1nccs1 | inconclusive: 4.47 µM [inhibitor, full curve, poor fit]
CN1c2ccccc2C(C)(C)C12CC(c1cccc(S(=O)(=O)N3CCCC3)c1)=NO2 (stereo not given) | active: 0.461 µM
CCC1(c2ccccc2)NC(=O)N(CC(=O)N2CCN(S(=O)(=O)c3ccccc3)CC2)C1=O (stereo not given) | inconclusive: 2.24 µM [activator, full curve]
COC[C@@H]1OC(=O)c2coc3c2[C@]1(C)C1=C(C3=O)[C@H]2CCC(=O)[C@]2(C)C[C@@H]1OC(C)=O | inactive
COc1ccc2oc(-c3cccc(NC(=O)c4sc5c([N+](=O)[O-])cccc5c4Cl)c3)nc2c1 | inactive
COc1cccc(-c2ccc(SCC(=O)c3ccccc3)nn2)c1 | inconclusive: 2.82 µM [inhibitor, single point]
